The text below walks through data of patent US20030091564A1.

Sequences of proteins named here, by UniProt entry; tags and fusion partners are left off. A change or cut given only in a name is not applied to a line headed by its entry.
UniProt P27548: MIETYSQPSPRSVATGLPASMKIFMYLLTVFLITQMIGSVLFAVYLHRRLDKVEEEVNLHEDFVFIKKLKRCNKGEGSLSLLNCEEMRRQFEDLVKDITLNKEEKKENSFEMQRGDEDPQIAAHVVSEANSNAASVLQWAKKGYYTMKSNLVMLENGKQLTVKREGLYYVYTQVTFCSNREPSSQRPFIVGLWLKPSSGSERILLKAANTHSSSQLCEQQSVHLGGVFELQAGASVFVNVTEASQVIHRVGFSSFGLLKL

Experiment [1] addresses CD40/Fc fusion protein (human) (UniProt P25942). The experiment can be described thus: CD40Fc receptor binding assay, crude supernatants.
In experiment [2] the target is membrane-bound murine CD40-L (murine) (UniProt P27548). The experiment in a line: slide autoradiography, 125I-CD40/Fc on CV1-EBNA cells transfected with murine CD40-L clones.
The target of experiment [3] is CD40/Fc fusion protein (human) (UniProt P25942). The experiment in a line: solid phase assay with CD40Fc.

These are yes or no findings as the source states them, for the method shown. Some binding calls cover weakened binding; strength is not graded here.

As for “monomeric murine CD40-L without amino terminal Flag (from UniProt P27548 112-260) (ligand)”, the binding result in experiment [1] is “binds”.
Consider “CD40/Fc fusion protein (from UniProt P25942 21-193)”, for which the binding entry in experiment [2] is listed as “binds”.
On to “monomeric murine CD40-L with Flag (from UniProt P27548 119-260) (ligand)”, for which the binding entry in experiment [3] is recorded as “binds”.
